Assay results from article PMC6796926, “Pioneering function of Isl1 in the epigenetic control of cardiomyocyte cell fate”.
For at least one entry, the source does not settle the construct or the ends of the probe. Results from cells or extracts need not show a direct contact.

System: Nkx2.5
Assay: EMSA
Details: nuclear extract; 40 mM KCl, 15 mM HEPES pH 8.0, 1 mM EDTA, 0.5 mM DTT, 2 mM MgCl2, 5% glycerol, 10 ng/ul poly dI/dC, 0.1 mg/ml BSA, 30 min, RT; 4% PAGE in 0.5x TBE; protein in a lysate after overexpression; label: biotin (PCR primers)

“CGGTGTCTGCTATCACTCAGTTTCATCCCTTTCTTCCCAAATGGCCAGTTTCATGTTGTGTATCTTGACAGTGACTCCCAACCAGAGACTCCTGTTAAGGGAACTTGTCAGTCATAATAGACAATAAGTGAACTTCTTGTTCGGGGTGCTCAATAATTTGCT (double strand) [free Ttn DNA]”: binds.
